The text below walks through data of US5750531A, “Pyrimidine derivatives and processes for the preparation thereof” (Yuhan Corporation, priority 1994, dated 1998).

Counter-ions that a name gives are not always drawn. Some results are limits rather than exact numbers.

The series deals with proton pump(H^+ /K^+ ATPase). The series can be described thus: Inhibition of proton pump(H^+ /K^+ ATPase) activity. The class given is biochemical. To be noted: IC50 omeprazole / IC50 test compound. The procedure:
Test 1: Inhibition of proton pump(H^+ /K^+ ATPase) activity
A proton pump enzyme source was prepared by the same method as in Experiment 1-1 of WO 94/14795. Further, the inhibitory effect of proton pump activity was measured by the same method as in Experiment 1-2 of WO 94/14795.
Namely, the proton pump activity stimulated by Mg^++ was used as a negative comparative group, and the activity stimulated by Mg^++ and K^+ was used as a positive comparative group. The comparative compound was omeprazole.
Test tubes were divided into 4 groups: Group 1 as negative comparative group(n=3), Group 2 as positive comparative group(n=3), Group 3(n=5×2) to be administered with the compound of the present invention and Group 4(n=5×2) to be administered with the comparative compound.
The inhibitory effects of Groups 3 and 4 on proton pump activity were measured by employing the compound prepared in Example and omeperazole, respectively, each of which was dissolved in dimethylsulfoxide at 5 different concentrations.
To each of Groups 1, 2, 3 and 4 were added 100 μl of magnesium chloride(40 mM) dissolved in 40 mM Tris-HCl buffer(pH 6.0) and 100μ of the enzyme source. Then, 50μ of potassium chloride(50 mM) and 50 μl of ammonium chloride(6 mM) dissolved in 40 mM Tris-HCl buffer(pH 6.0) were added to all groups except for Group 1.
10 μl of dimethylsulfoxide was added to each of Groups 1 and 2; and to Group 3 was added 10 μl of the solution in which the compound prepared in Example was dissolved in dimethylsulfoxide at 5 different concentrations(n=5×2). To Group 4, 10 μl of the solution prepared by dissolving omeprazole in dimethylsulfoxide at 5 different concentrations(37.6, 21.4, 12.2, 7.0 and 4.0 μM) was added(n=5×2). 40 mM Tris-HCl buffer(pH=6.0) was added thereto so as to make the total volume 400 μl.
Thereafter, the test tubes of each Group were placed at 37° C. for 30 minutes for the preincubation. 100 μl of ATP solution (6.6 mM) was added until the reaction volume became 500 μl. After the reaction was carried out at 37° C. for 30 minutes, 25% cold trichloroacetic acid was added to terminate the enzyme reaction. The released inorganic phosphate was measured by an automatic analyzer(Express 550, Corning).
The difference between Group 1 and Group 2 represents the proton pump activity activated by K^+ only. The inhibition percentages of Groups 3 and 4 were calculated from Litchfield-wilcoxon equation[see, e.g., J. pharmacol. Exp. Ther., 96, 99(1949)]. The concentrations of the test compounds which inhibit 50% of the proton pump activity are represented as IC50 in Table 1.

In the case of `Cc1cc(F)ccc1Nc1nccc(N2CCc3ccccc3C2C)n1.Cl` (centres unmarked) [Example 1, 2-(2-methyl-4-fluorophenylamino)-4-(1-methyl-1,2,3,4-tetrahydroisoquinolin-2-yl)pyrimidine hydrochloride], the Effect ratio came to 1.08.

As for `Cc1cc(N2CCc3ccccc3C2C)nc(Nc2ccc(F)cc2C)n1.Cl` (centres unmarked) [Example 2, 6-methyl-2-(2-methyl-4-fluorophenylamino)-4-(1-methyl-1,2,3,4-tetrahydroisoquinolin-2-yl)pyrimidine hydrochloride], the Effect ratio is reported as 7.82.

With `Cc1cc(N2CCc3ccccc3C2C)nc(Nc2ccc(F)cc2)n1.Cl` (centres unmarked) [Example 3, 6-methyl-4-(1-methyl-1,2,3,4-tetrahydroisoquinolin-2-yl)-2-(4-fluorophenylamino)pyrimidine hydrochloride], the Effect ratio was 2.11.

With `CCc1cc(N2CCc3ccccc3C2C)nc(Nc2ccc(F)cc2C)n1.Cl` (centres unmarked) [Example 5, 6-ethyl-2-(2-methyl-4-fluorophenylamino)-4-(1-methyl-1,2,3,4-tetrahydroisoquinolin-2-yl)pyrimidine hydrochloride], the Effect ratio worked out at 4.91.

With `CCc1cc(N2CCc3ccccc3C2C)nc(Nc2ccc(F)cc2)n1.Cl` (centres unmarked) [Example 6, 6-ethyl-2-(4-fluorophenylamino)-4-(1-methyl-1,2,3,4-tetrahydroisoquinolin-2-yl)pyrimidine hydrochloride], the Effect ratio was 4.91.

`CCc1cc(N2CCc3ccccc3C2C)nc(Nc2ccccc2C)n1.Cl` (centres unmarked) [Example 8, 6-ethyl-2-(2-methylphenylamino)-4-(1-methyl-1,2,3,4-tetrahydroisoquinolin-2-yl)pyrimidine hydrochloride]: the Effect ratio is recorded as ~ 0.60.

As to `CCCc1cc(N2CCc3ccccc3C2C)nc(Nc2ccc(F)cc2C)n1.Cl` (centres unmarked) [Example 9, 2-(2-methyl-4-fluorophenylamino)-4-(1-methyl-1,2,3,4-tetrahydroisoquinolin-2-yl)-6-propylpyrimidine hydrochloride], the Effect ratio is reported as ~ 1.12.

Consider `CCCc1cc(N2CCc3ccccc3C2C)nc(Nc2ccc(F)cc2)n1.Cl` (centres unmarked) [Example 10, 4-(1-methyl-1,2,3,4-tetrahydroisoquinolin-2-yl)-6-propyl-2-(4-fluorophenylamino)pyrimidine hydrochloride], for which the Effect ratio came out at 0.69.

As to `Cc1cc(F)ccc1Nc1nc(C)c(C)c(N2CCc3ccccc3C2C)n1.Cl` (centres unmarked) [Example 12, 5,6-dimethyl-2-(2-methyl-4-fluorophenylamino)-4-(1-methyl-1,2,3,4-tetrahydroisoquinolin-2-yl)pyrimidine hydrochloride], the Effect ratio came to 9.83.

For `Cc1cc(F)ccc1Nc1nc(C)c(C)c(N2CCc3ccccc3[C@H]2C)n1.Cl` [Example 13, (R)-5,6-Dimethyl-2-(2-methyl-4-fluorophenylamino)-4-(1-methyl-1,2,3,4-tetrahydroisoquinolin-2-yl)pyrimidine hydrochloride], the Effect ratio came out at 10.70.

Regarding `Cc1cc(F)ccc1Nc1nc(C)c(C)c(N2CCc3ccccc3[C@@H]2C)n1.Cl` [Example 14, (S)-5,6-dimethyl-2-(2-methyl-4-fluorophenylamino)-4-(1-methyl-1,2,3,4-tetrahydroisoquinolin-2-yl)pyrimidine hydrochloride], the Effect ratio came out at 8.70.

Take `Cc1nc(Nc2ccc(F)cc2)nc(N2CCc3ccccc3C2C)c1C.Cl` (centres unmarked) [Example 15, 5,6-dimethyl-2-(4-fluorophenylamino)-4-(1-methyl-1,2,3,4-tetrahydroisoquinolin-2-yl)pyrimidine hydrochloride]: the Effect ratio is recorded as 3.69.

For the compound `Cc1nc(Nc2ccc(F)cc2)nc(N2CCc3ccccc3[C@H]2C)c1C.Cl` [Example 16, (R)-5,6-dimethyl-2-(4-fluorophenylamino)-4-(1-methyl-1,2,3,4-tetrahydroisoquinolin-2-yl)pyrimidine hydrochloride], the Effect ratio came out at 3.80.

`Cc1nc(Nc2ccc(F)cc2)nc(N2CCc3ccccc3[C@@H]2C)c1C.Cl` [Example 17, (S)-5,6-dimethyl-2-(4-fluorophenylamino)-4-(1-methyl-1,2,3,4-tetrahydroisoquinolin-2-yl)pyrimidine hydrochloride]: the Effect ratio was 3.20.

As for `Cc1nc(N(C)c2ccccc2)nc(N2CCc3ccccc3C2C)c1C.Cl` (centres unmarked) [Example 18, 5,6-dimethyl-2-(N-methylphenylamino)-4-(1-methyl-1,2,3,4-tetrahydroisoquinolin-2-yl)pyrimidine hydrochloride], the Effect ratio worked out at 2.69.

In the case of `Cc1nc(N(C)c2ccccc2)nc(N2CCc3ccccc3[C@H]2C)c1C.Cl` [Example 19, (R)-5,6-Dimethyl-2-(N-methylphenylamino)-4-(1-methyl-1,2,3,4-tetrahydroisoquinolin-2-yl)pyrimidine hydrochloride], the Effect ratio is reported as 2.92.

Regarding `Cc1nc(N(C)c2ccccc2)nc(N2CCc3ccccc3[C@@H]2C)c1C.Cl` [Example 20, (S)-5,6-dimethyl-2-(N-methylphenylamino)-4-(1-methyl-1,2,3,4-tetrahydroisoquinolin-2-yl)pyrimidine hydrochloride], the Effect ratio was 2.59.

As for `Cc1nc(Nc2ccccc2)nc(N2CCc3ccccc3C2C)c1C.Cl` (centres unmarked) [Example 21, 5,6-dimethyl-2-(phenylamino)-4-(1-methyl-1,2,3,4-tetrahydroisoquinolin-2-yl)pyrimidine hydrochloride], the Effect ratio is listed as 7.33.

Consider `Cc1nc(Nc2ccccc2)nc(N2CCc3ccccc3[C@H]2C)c1C` [Example 22, (R)-5,6-Dimethyl-2-(4-phenylamino)-4-(1-methyl-1,2,3,4-tetrahydroisoquinolin-2-yl)pyrimidine hydrochloride], for which the Effect ratio came to 7.26.

`Cc1nc(Nc2ccccc2)nc(N2CCc3ccccc3[C@@H]2C)c1C` [Example 23, hydrochloride]: the Effect ratio is 5.45.

Consider `Cc1ccccc1Nc1nc(C)c(C)c(N2CCc3ccccc3C2C)n1.Cl` (centres unmarked) [Example 24, 5,6-Dimethyl-2-(2-methylphenylamino)-4-(1-methyl-1,2,3,4-tetrahydroisoquinolin-2-yl)pyrimidine hydrochloride], for which the Effect ratio was 19.33.

For the compound `Cc1ccc(Nc2nc(C)c(C)c(N3CCc4ccccc4C3C)n2)cc1.Cl` (centres unmarked) [Example 25, 5,6-dimethyl-2-(4-methylphenylamino)-4-(1-methyl-1,2,3,4-tetrahydroisoquinolin-2-yl)pyrimidine hydrochloride], the Effect ratio worked out at 8.10.

Consider `CCc1nc(Nc2ccc(F)cc2C)nc(N2CCc3ccccc3C2C)c1C.Cl` (centres unmarked) [Example 26, 5-methyl-6-ethyl-2-(2-methyl-4-fluorophenylamino)-4-(1-methyl-1,2,3,4-tetrahydroisoquinolin-2-yl)pyrimidine hydrochloride], for which the Effect ratio was 15.62.

For `CCc1nc(Nc2ccc(F)cc2)nc(N2CCc3ccccc3C2C)c1C.Cl` (centres unmarked) [Example 27, 5-methyl-6-ethyl-2-(4-fluorophenylamino)-4-(1-methyl-1,2,3,4-tetrahydroisoquinolin-2-yl)pyrimidine hydrochloride], the Effect ratio is listed as 6.26.

As for `CCc1nc(N(C)c2ccccc2)nc(N2CCc3ccccc3C2C)c1C.Cl` (centres unmarked) [Example 28, 5-methyl-6-ethyl-2-(N-methylphenylamino)-4-(1-methyl-1,2,3,4-tetrahydroisoquinolin-2-yl)pyrimidine hydrochloride], the Effect ratio is listed as under 0.95.

In the case of `Cc1cc(F)ccc1Nc1nc2c(c(N3CCc4ccccc4C3C)n1)CCC2` (centres unmarked) [Example 29, hydrochloride], the Effect ratio was found to be 17.49.

For the compound `CC1c2ccccc2CCN1c1nc(Nc2ccc(F)cc2)nc2c1CCC2` (centres unmarked) [Example 30, hydrochloride], the Effect ratio was ~ 1.69.

`CC1c2ccccc2CCN1c1nc(N(C)c2ccccc2)nc2c1CCC2` (centres unmarked) [Example 31, 2-(N-methylphenylamino)-4-(1-methyl-1,2,3,4-tetrahydroisoquinolin-2-yl)cyclopenta[d]pyrimidine hydrochloride]: the Effect ratio was ~ 0.51.

As for `Cc1cc(F)ccc1Nc1nc2c(c(N3CCc4ccccc4C3C)n1)CCCC2.Cl` (centres unmarked) [Example 32, 2-(2-methyl-4-fluorophenylamino)-4-(1-methyl-1,2,3,4-tetrahydroisoquinolin-2-yl)-5,6,7,8-tetrahydroquinazoline hydrochloride], the Effect ratio turned out to be 8.40.
